According to patent publication US20260242487A1:
Results are given in words; binding and its absence hold for the method and conditions named. Some entries that bind do so weakly or less than the wild type.

Chains of the proteins cited; added tags and fusions are not shown. Lines headed by an entry give the natural chain unless they say otherwise; changes in a name come on top. A line that says so, or that is headed by a name, gives the form on record, which may keep a tag or linker.
hFGFR2b-Fc (Kactus, Catalog #FGR-HM2BB) (P21802, form named): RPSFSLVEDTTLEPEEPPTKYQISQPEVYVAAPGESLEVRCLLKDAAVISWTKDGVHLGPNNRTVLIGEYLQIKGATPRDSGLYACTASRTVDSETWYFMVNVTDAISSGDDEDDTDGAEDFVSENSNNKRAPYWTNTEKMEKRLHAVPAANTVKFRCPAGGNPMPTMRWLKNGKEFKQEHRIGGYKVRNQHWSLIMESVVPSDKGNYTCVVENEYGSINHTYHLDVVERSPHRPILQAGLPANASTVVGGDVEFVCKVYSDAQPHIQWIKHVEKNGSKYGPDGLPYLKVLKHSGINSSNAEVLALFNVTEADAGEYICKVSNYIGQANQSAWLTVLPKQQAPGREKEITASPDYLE
human FGFR2b expressed on cells (hFGFR2b-expressing CHOK1 cells; Ba/F3 cells expressing full-length human FGFR2b) (P21802, form named): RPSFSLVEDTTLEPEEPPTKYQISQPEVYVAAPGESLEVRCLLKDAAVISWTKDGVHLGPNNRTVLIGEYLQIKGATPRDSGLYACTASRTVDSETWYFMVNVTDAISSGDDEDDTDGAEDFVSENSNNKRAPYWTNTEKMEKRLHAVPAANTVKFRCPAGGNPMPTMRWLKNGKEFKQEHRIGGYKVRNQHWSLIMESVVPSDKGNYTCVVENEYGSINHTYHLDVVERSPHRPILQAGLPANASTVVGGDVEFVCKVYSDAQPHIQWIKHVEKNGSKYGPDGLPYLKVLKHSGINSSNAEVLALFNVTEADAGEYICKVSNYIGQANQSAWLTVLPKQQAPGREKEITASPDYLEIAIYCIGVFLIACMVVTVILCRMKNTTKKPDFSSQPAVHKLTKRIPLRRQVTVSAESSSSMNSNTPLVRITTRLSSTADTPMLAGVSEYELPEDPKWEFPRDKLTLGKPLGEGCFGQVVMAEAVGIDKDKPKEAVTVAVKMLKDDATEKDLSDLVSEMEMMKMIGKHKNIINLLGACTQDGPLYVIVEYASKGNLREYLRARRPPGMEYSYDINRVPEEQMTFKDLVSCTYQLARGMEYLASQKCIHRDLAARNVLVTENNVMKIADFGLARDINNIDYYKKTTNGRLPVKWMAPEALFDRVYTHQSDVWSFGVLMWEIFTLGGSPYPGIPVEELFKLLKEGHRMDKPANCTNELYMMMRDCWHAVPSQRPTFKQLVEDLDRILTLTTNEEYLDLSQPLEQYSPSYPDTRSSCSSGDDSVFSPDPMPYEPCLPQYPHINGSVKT

Columns and labels:
[1] = molecular target: hFGFR2b-Fc (Kactus, Catalog #FGR-HM2BB) (human) (UniProt P21802); test: competition ELISA on coated hFGFR2b-Fc; blocked ligand biotin-FGF10 (5 nM), detection with streptavidin-HRP
[2] = molecular target: human FGFR2b expressed on cells (hFGFR2b-expressing CHOK1 cells; Ba/F3 cells expressing full-length human FGFR2b) (human) (UniProt P21802); test: flow cytometry on CHOK1 cells expressing hFGFR2b, detection with APC anti-human IgG Fc
[3] = molecular target: human FGFR2b expressed on cells (hFGFR2b-expressing CHOK1 cells; Ba/F3 cells expressing full-length human FGFR2b) (human) (UniProt P21802); test: flow cytometry on CHOK1 cells expressing hFGFR2b
FGFR2b-his (human) = FGFR2b-his (human) (UniProt P21802); test: SPR, antibody immobilised on the chip, FGFR2b-his flowed over it [upper panel]
[4] = molecular target: hFGFR2b-Fc (Kactus, Catalog #FGR-HM2BB) (human) (UniProt P21802); test: competition ELISA on coated hFGFR2b-Fc; blocked ligand human FGF7-his (20 nM), detection with HRP anti-6xHis
[5] = molecular target: human FGFR2b expressed on cells (hFGFR2b-expressing CHOK1 cells; Ba/F3 cells expressing full-length human FGFR2b) (human) (UniProt P21802); test: flow cytometry on cells expressing human FGFR2b

Measured: binding

B1: HC18 (antibody, human IgG1, kappa, V domains shown)
VH: EVQLQQSGTVLARPGASVKMSCKTSGYTFTSYWMHWVKQRPGQGLEWIGSIYPENSDTSYNQKFKGKAKLTAVTSASTAYMDLSSLTNEDSAVYYCSIYHGYDGDYWGQGTTLTVSS
VL: QIVLTQSPAIMSASPGEKVTITCSASSSVSYMYWFQQKPGTSPKLWIYSTSNLASGVPARFSGSGSGTSYSLTISRMEAEDAATYYCQQRSSYPYTFGGGTKLEIKR
binds: all assays above
